Assay results from patent US20250283871A1, “COMPOSITIONS AND METHODS FOR MODULATING THE INTERACTION BETWEEN SS18-SSX FUSION ONCOPROTEIN AND NUCLEOSOMES” (Dana-Farber Cancer Institute, Inc., priority 2020, published 2025).

B1: ACTL6B (protein, UniProt O94805 1-426, looked up)
Actin-like protein 6B: MSGGVYGGDEVGALVFDIGSFSVRAGYAGEDCPKADFPTTVGLLAAEEGGGLELEGDKEKKGKIFHIDTNALHVPRDGAEVMSPLKNGMIEDWECFRAILDHTYSKHVKSEPNLHPVLMSEAPWNTRAKREKLTELMFEQYNIPAFFLCKTAVLTAFANGRSTGLVLDSGATHTTAIPVHDGYVLQQGIVKSPLAGDFISMQCRELFQEMAIDIIPPYMIAAKEPVREGAPPNWKKKEKLPQVSKSWHNYMCNEVIQDFQASVLQVSDSPYDEQVAAQMPTVHYEMPNGYNTDYGAERLRIPEGLFDPSNVKGLSGNTMLGVGHVVTTSIGMCDIDIRPGLYGSVIVTGGNTLLQGFTDRLNRELSQKTPPSMRLKLIASNSTMERKFSPWIGGSILASLGTFQQMWISKQEYEEGGKQCVERKCP
B2: ADNP2 (protein, UniProt Q6IQ32 1-1131, looked up)
Activity-dependent …: MFQIPVENLDNIRKVRKKVKGILVDIGLDSCKELLKDLKGFDPGEKYFHNTSWGDVSLWEPSGKKVRYRTKPYCCGLCKYSTKVLTSFKNHLHRYHEDEIDQELVIPCPNCVFASQPKVVGRHFRMFHAPVRKVQNYTVNILGETKSSRSDVISFTCLKCNFSNTLYYSMKKHVLVAHFHYLINSYFGLRTEEMGEQPKTNDTVSIEKIPPPDKYYCKKCNANASSQDALMYHILTSDIHRDLENKLRSVISEHIKRTGLLKQTHIAPKPAAHLAAPANGSAPSAPAQPPCFHLALPQNSPSPAAGQPVTVAQGAPGSLTHSPPAAGQSHMTLVSSPLPVGQNSLTLQPPAPQPVFLSHGVPLHQSVNPPVLPLSQPVGPVNKSVGTSVLPINQTVRPGVLPLTQPVGPINRPVGPGVLPVSPSVTPGVLQAVSPGVLSVSRAVPSGVLPAGQMTPAGQMTPAGVIPGQTATSGVLPTGQMVQSGVLPVGQTAPSRVLPPGQTAPLRVISAGQVVPSGLLSPNQTVSSSAVVPVNQGVNSGVLQLSQPVVSGVLPVGQPVRPGVLQLNQTVGTNILPVNQPVRPGASQNTTFLTSGSILRQLIPTGKQVNGIPTYTLAPVSVTLPVPPGGLATVAPPQMPIQLLPSGAAAPMAGSMPGMPSPPVLVNAAQSVFVQASSSAADTNQVLKQAKQWKTCPVCNELFPSNVYQVHMEVAHKHSESKSGEKLEPEKLAACAPFLKWMREKTVRCLSCKCLVSEEELIHHLLMHGLGCLFCPCTFHDIKGLSEHSRNRHLGKKKLPMDYSNRGFQLDVDANGNLLFPHLDFITILPKEKLGEREVYLAILAGIHSKSLVPVYVKVRPQAEGTPGSTGKRVSTCPFCFGPFVTTEAYELHLKERHHIMPTVHTVLKSPAFKCIHCCGVYTGNMTLAAIAVHLVRCRSAPKDSSSDLQAQPGFIHNSELLLVSGEVMHDSSFSVKRKLPDGHLGAEDQRHGEEQPPILNADAAPGPEKVTSVVPFKRQRNESRTEGPIVKDEALQILALDPKKYEGRSYEEKKQFLKDYFHKKPYPSKKEIELLSSLFWVWKIDVASFFGKRRYICMKAIKNHKPSVLLGFDMSELKNVKHRLNFEYEP
B3: MBD3 (protein, UniProt O95983 1-291, looked up)
Methyl-CpG-binding domain …: MERKRWECPALPQGWEREEVPRRSGLSAGHRDVFYYSPSGKKFRSKPQLARYLGGSMDLSTFDFRTGKMLMSKMNKSRQRVRYDSSNQVKGKPDLNTALPVRQTASIFKQPVTKITNHPSNKVKSDPQKAVDQPRQLFWEKKLSGLNAFDIAEELVKTMDLPKGLQGVGPGCTDETLLSAIASALHTSTMPITGQLSAAVEKNPGVWLNTTQPLCKAFMVTDEDIRKQEELVQQVRKRLEEALMADMLAHVEELARDGEAPLDKACAEDDDEEDEEEEEEEPDPDPEMEHV
B4: CBX4 (protein, UniProt O00257 1-560, looked up)
E3 SUMO-protein ligase CBX4: MELPAVGEHVFAVESIEKKRIRKGRVEYLVKWRGWSPKYNTWEPEENILDPRLLIAFQNRERQEQLMGYRKRGPKPKPLVVQVPTFARRSNVLTGLQDSSTDNRAKLDLGAQGKGQGHQYELNSKKHHQYQPHSKERAGKPPPPGKSGKYYYQLNSKKHHPYQPDPKMYDLQYQGGHKEAPSPTCPDLGAKSHPPDKWAQGAGAKGYLGAVKPLAGAAGAPGKGSEKGPPNGMMPAPKEAVTGNGIGGKMKIVKNKNKNGRIVIVMSKYMENGMQAVKIKSGEVAEGEARSPSHKKRAADERHPPADRTFKKAAGAEEKKVEAPPKRREEEVSGVSDPQPQDAGSRKLSPTKEAFGEQPLQLTTKPDLLAWDPARNTHPPSHHPHPHPHHHHHHHHHHHHAVGLNLSHVRKRCLSETHGEREPCKKRLTARSISTPTCLGGSPAAERPADLPPAAALPQPEVILLDSDLDEPIDLRCVKTRSEAGEPPSSLQVKPETPASAAVAVAAAAAPTTTAEKPPAEAQDEPAESLSEFKPFFGNIIITDVTANCLTVTFKEYVTV
B5: MFAP1 (protein, UniProt P55081 2-439, looked up)
Microfibrillar-associated …: SVPSALMKQPPIQSTAGAVPVRNEKGEISMEKVKVKRYVSGKRPDYAPMESSDEEDEEFQFIKKAKEQEAEPEEQEEDSSSDPRLRRLQNRISEDVEERLARHRKIVEPEVVGESDSEVEGDAWRMEREDSSEEEEEEIDDEEIERRRGMMRQRAQERKNEEMEVMEVEDEGRSGEESESESEYEEYTDSEDEMEPRLKPVFIRKKDRVTVQEREAEALKQKELEQEAKRMAEERRKYTLKIVEEETKKELEENKRSLAALDALNTDDENDEEEYEAWKVRELKRIKRDREDREALEKEKAEIERMRNLTEEERRAELRANGKVITNKAVKGKYKFLQKYYHRGAFFMDEDEEVYKRDFSAPTLEDHFNKTILPKVMQVKNFGRSGRTKYTHLVDQDTTSFDSAWGQESAQNTKFFKQKAAGVRDVFERPSAKKRKTT
B6: NUP85 (protein, UniProt Q9BW27 1-656, looked up)
Nuclear pore complex protein …: MEELDGEPTVTLIPGVNSKKNQMYFDWGPGEMLVCETSFNKKEKSEMVPSCPFIYIIRKDVDVYSQILRKLFNESHGIFLGLQRIDEELTGKSRKSQLVRVSKNYRSVIRACMEEMHQVAIAAKDPANGRQFSSQVSILSAMELIWNLCEILFIEVAPAGPLLLHLLDWVRLHVCEVDSLSADVLGSENPSKHDSFWNLVTILVLQGRLDEARQMLSKEADASPASAGICRIMGDLMRTMPILSPGNTQTLTELELKWQHWHEECERYLQDSTFATSPHLESLLKIMLGDEAALLEQKELLSNWYHFLVTRLLYSNPTVKPIDLHYYAQSSLDLFLGGESSPEPLDNILLAAFEFDIHQVIKECSIALSNWWFVAHLTDLLDHCKLLQSHNLYFGSNMREFLLLEYASGLFAHPSLWQLGVDYFDYCPELGRVSLELHIERIPLNTEQKALKVLRICEQRQMTEQVRSICKILAMKAVRNNRLGSALSWSIRAKDAAFATLVSDRFLRDYCERGCFSDLDLIDNLGPAMMLSDRLTFLGKYREFHRMYGEKRFADAASLLLSLMTSRIAPRSFWMTLLTDALPLLEQKQVIFSAEQTYELMRCLEDLTSRRPVHGESDTEQLQDDDIETTKVEMLRLSLARNLARAIIREGSLEGS
B7: PRPF38A (protein, UniProt Q8NAV1 1-312, looked up)
Pre-mRNA-splicing factor 38A: MANRTVKDAHSIHGTNPQYLVEKIIRTRIYESKYWKEECFGLTAELVVDKAMELRFVGGVYGGNIKPTPFLCLTLKMLQIQPEKDIIVEFIKNEDFKYVRMLGALYMRLTGTAIDCYKYLEPLYNDYRKIKSQNRNGEFELMHVDEFIDELLHSERVCDIILPRLQKRYVLEEAEQLEPRVSALEEDMDDVESSEEEEEEDEKLERVPSPDHRRRSYRDLDKPRRSPTLRYRRSRSRSPRRRSRSPKRRSPSPRRERHRSKSPRRHRSRSRDRRHRSRSKSPGHHRSHRHRSHSKSPERSKKSHKKSRRGNE

Tested on: BAF complex subunits and histone proteins
Experiment: Mass spectrometry proteomics of purified HA-SS18 WT and HA-SS18-SSX1 complexes (Tables 5A-5E)
Design: species or system human
Conditions: for Total / Unique: HA-SS18SSX1_CHR_peptides; for Total: total peptides of the identified protein; for Unique: unique peptides of the identified protein
[1] = HA-SS18SSX1_NE_peptides: protein co-purified with HA-SS18-SSX1 BAF complexes from soluble nuclear extract (NE), HEK-293T cells
[2] = HA-SS18WT_CHR_peptides: protein identified in HA-SS18 WT BAF complex purification from nuclease-treated solubilized chromatin (CHR), HEK-293T
[3] = HA-SS18WT_NE_peptides: proteins co-purified with HA-SS18 WT from nuclear extract (NE), HEK-293T
[4] = HA-SS18SSX1 purification, NE (soluble nuclear extract) fraction, HEK-293T, peptides per identified protein
[5] = HA-SS18WT_NE_peptides: HA-SS18 WT complexes purified from nuclear extract (NE), HEK-293T, label = protein identified (Gene Symbol)

Molecule | Total | Unique | Total (peptides) [1] | Unique (peptides) [1] | Total (total peptides) [2] | Unique (unique peptides) [2] | Total (peptides) [3] | Unique (peptides) [3] | Total (total peptides) [4] | Unique (unique peptides) [4] | Total (peptides) [5] | Unique (peptides) [5]
B1 | 2 | 2 | 2 | 1 | 1 | 1 | 2 | 2 |  |  |  | 
B2 | 2 | 2 |  |  | 1 | 1 |  |  |  |  |  | 
B3 | 2 | 2 |  |  | 2 | 2 |  |  |  |  |  | 
B4 | 2 | 2 | 2 | 2 |  |  | 2 | 2 |  |  |  | 
B5 | 2 | 2 |  |  | 1 | 1 |  |  |  |  |  | 
B6 | 2 | 2 |  |  | 1 | 1 |  |  | 4 | 4 | 5 | 5
B7 | 2 | 2 |  |  |  |  |  |  |  |  |  | 
